In publication PMC13136903, “Zα and Zβ domains of ADAR1 and ZBP1 bind G-quadruplexes with nanomolar affinities, establishing Zβ as a G-quadruplex-specific domain”:
For some assays here: A weaker result is weaker than the reference pair of the same experiment. Where a protein sequence is shown, tags need not be part of it. For some assays here: The exact form of at least one protein or probe is not confirmed. For some assays here: At least one verdict was read from the data and is not stated in words by the source.

How the values were obtained:
ZBP1 Zα2 (Homo sapiens) = target: T1, ZBP1 Zα2 (Homo sapiens) (UniProt Q9H171); experiment: NMR; settings: LLPS; 20 mM NaPi pH 6.4, 100 mM KCl, 1 mM DTT, 0.5 mM EDTA (LiCl replaces KCl where noted); competition 40 nM); recombinant protein; residues 103-166; protein details: N-terminal 6xHis, thrombin site, T7 tag
T1 sequence (looked up): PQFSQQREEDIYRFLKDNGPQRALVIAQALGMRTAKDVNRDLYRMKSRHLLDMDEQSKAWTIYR

ZBP1 Zα1 (Homo sapiens) = target: T2, ZBP1 Zα1 (Homo sapiens) (UniProt Q9H171); experiment: NMR; settings: 20 mM NaPi pH 6.4, 100 mM KCl, 1 mM DTT, 0.5 mM EDTA (LiCl replaces KCl where noted); competition 40 nM); recombinant protein; residues 1-70; protein details: N-terminal 6xHis, thrombin site, T7 tag
T2 sequence (looked up): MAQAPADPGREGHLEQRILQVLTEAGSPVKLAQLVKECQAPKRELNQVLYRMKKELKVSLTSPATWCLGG

GGGAGGGCGGGAGGG [ALU-GQRNA]: binds (ZBP1 Zα2 (Homo sapiens)).

CCGACCGCCCGACCG [ALU-mutRNA]: binds more weakly (ZBP1 Zα1 (Homo sapiens)).
